# Reference: US20220193138A1
# No constants are given. Whether binding was seen depends on the method and setting. Some binding calls cover weakened binding; strength is not graded here. Tags and fused reporters may be left off the sequences shown.
# B1: CD73.FcγRIIIa construct (CD73 scFv-FcγRIIIa fusion protein) expressed on engineered human NK cells (protein)
# chain: EVQLLESGGGLVQPGGSLRLSCAASGFTFSSYAYSWVRQAPGKGLEWVSAISGSGGRTYYADSVKGRFTISRDNSKNTLYLQMNSLRAEDTAVYYCARLGYGRVDEWGRGTLVTVSSGGGGSGGGGSGGGGSQSVLTQPPSASGTPGQRVTISCSGSLSNIGRNPVNWYQQLPGTAPKLLIYLDNLRLSGVPDRFSGSKSGTSASLAISGLQSEDEADYYCATWDDSHPGWTFGGGTKLTVLITQGLAVSTISSFFPPGYQVSFCLVMVLLFAVDTGLYFSVKTNIRSSTRDWKDHKFKWRKDPQDK
# Tests used:
# [1] = target: T1, biotinylated human CD73 recombinant protein (human) (UniProt P21589); assay: flow cytometry; biotinylated CD73 on engineered NK cells, detected with PE-labeled streptavidin
# T1 sequence (biotinylated (site not stated), looked up): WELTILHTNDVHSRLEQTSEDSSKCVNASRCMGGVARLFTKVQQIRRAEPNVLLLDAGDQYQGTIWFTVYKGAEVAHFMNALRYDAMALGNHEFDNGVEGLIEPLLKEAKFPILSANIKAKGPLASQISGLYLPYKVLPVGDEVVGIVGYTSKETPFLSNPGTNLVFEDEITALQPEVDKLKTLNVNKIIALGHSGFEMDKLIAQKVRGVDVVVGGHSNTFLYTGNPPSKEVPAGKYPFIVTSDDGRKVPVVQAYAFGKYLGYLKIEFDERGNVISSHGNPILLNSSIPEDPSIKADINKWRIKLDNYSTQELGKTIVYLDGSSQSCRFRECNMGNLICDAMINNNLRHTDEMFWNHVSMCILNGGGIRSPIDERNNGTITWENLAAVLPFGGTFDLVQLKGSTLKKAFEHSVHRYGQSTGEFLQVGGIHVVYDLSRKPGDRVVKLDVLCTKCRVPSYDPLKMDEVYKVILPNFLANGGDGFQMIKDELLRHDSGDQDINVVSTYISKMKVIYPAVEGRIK
# [2] = target: T1, biotinylated human CD73 recombinant protein (human); assay: flow cytometry; biotinylated CD73 on engineered NK cells, detected with PE-labeled streptavidin (FIG. 5, subpart B)
binder,measurement,setting,value
B1,binding,[1],binds
same,binding,[2],binds
